At least one read-out could not be matched to a standard name with certainty.
Tests used:
EC1007 KPC-3 = type: cell-based, Escherichia coli
[1] = system: strains expressing class A ESBLs; type: cell-based
[2] = system: strains expressing class C and D enzymes; type: cell-based

Compound	AZT MPC4 KPC-3 EC1007 (EC1007 KPC-3)	AZT MPC4 CTX-M-14 KP1005 [1]	AZT MPC4 CTX-M-15 KP1009 [1]	AZT MPC4 SHV-5 ec308 [1]	AZT MPC4 SHV-12 KP1010 [1]	AZT MPC4 SHV-18 KP1012 [1]	AZT MPC4 TEM-10 EC1009 [1]	AZT MPC4 TEM-10 ec302 [1]	AZT MPC4 TEM-26 ec304 [1]	AZT MPC@4 CMY-6 EC1010 [2]	AZT MPC@4 ECL1002 [2]	AZT MPC@4 OXA-2, KPX1001 [2]	AZT MPC@4 OXA-10, qnrB4 KP1007 [2]	AZT MPC@4 PAM2035 [2]
O=C(O)C[C@@H]1CC[C@H](NC(=O)[C@H]2Cc3ccccc3CN2)B(O)O1 [Compound 46, 2-((3R,6S)-2-hydroxy-3-((R)-1,2,3,4-tetrahydroisoquinoline-3-carboxamido)-1,2-oxaborinan-6-yl)acetic acid]	X (key: X: MPC@4 of less than 5 μg/mL; Y: MPC@4 of 5 μg/mL to 20 μg/mL; Z: MPC@4 of greater than 20 μg/mL)	Z (key: X: MPC@4 of less than 5 μg/mL; Y: MPC@4 of 5 μg/mL to 20 μg/mL; Z: MPC@4 of greater than 20 μg/mL)	Z (key: X: MPC@4 of less than 5 μg/mL; Y: MPC@4 of 5 μg/mL to 20 μg/mL; Z: MPC@4 of greater than 20 μg/mL)	Z (key: X: MPC@4 of less than 5 μg/mL; Y: MPC@4 of 5 μg/mL to 20 μg/mL; Z: MPC@4 of greater than 20 μg/mL)	Z (key: X: MPC@4 of less than 5 μg/mL; Y: MPC@4 of 5 μg/mL to 20 μg/mL; Z: MPC@4 of greater than 20 μg/mL)	Z (key: X: MPC@4 of less than 5 μg/mL; Y: MPC@4 of 5 μg/mL to 20 μg/mL; Z: MPC@4 of greater than 20 μg/mL)	Z (key: X: MPC@4 of less than 5 μg/mL; Y: MPC@4 of 5 μg/mL to 20 μg/mL; Z: MPC@4 of greater than 20 μg/mL)	Z (key: X: MPC@4 of less than 5 μg/mL; Y: MPC@4 of 5 μg/mL to 20 μg/mL; Z: MPC@4 of greater than 20 μg/mL)	Z (key: X: MPC@4 of less than 5 μg/mL; Y: MPC@4 of 5 μg/mL to 20 μg/mL; Z: MPC@4 of greater than 20 μg/mL)	Z (key: X: MPC@4 of less than 5 μg/mL; Y: MPC@4 of 5 μg/mL to 20 μg/mL; Z: MPC@4 of greater than 20 μg/mL)	Z (key: X: MPC@4 of less than 5 μg/mL; Y: MPC@4 of 5 μg/mL to 20 μg/mL; Z: MPC@4 of greater than 20 μg/mL)	Z (key: X: MPC@4 of less than 5 μg/mL; Y: MPC@4 of 5 μg/mL to 20 μg/mL; Z: MPC@4 of greater than 20 μg/mL)	Z (key: X: MPC@4 of less than 5 μg/mL; Y: MPC@4 of 5 μg/mL to 20 μg/mL; Z: MPC@4 of greater than 20 μg/mL)	Z (key: X: MPC@4 of less than 5 μg/mL; Y: MPC@4 of 5 μg/mL to 20 μg/mL; Z: MPC@4 of greater than 20 μg/mL)
N=C(N)NCCC[C@@H](N)C(=O)N[C@H]1CC[C@@H](CC(=O)O)OB1O [Compound 47, 2-((3R,6S)-3-((R)-2-amino-5-guanidinopentanamido)-2-hydroxy-1,2-oxaborinan-6-yl)acetic acid]	Y (key: X: MPC@4 of less than 5 μg/mL; Y: MPC@4 of 5 μg/mL to 20 μg/mL; Z: MPC@4 of greater than 20 μg/mL)	Z (key: X: MPC@4 of less than 5 μg/mL; Y: MPC@4 of 5 μg/mL to 20 μg/mL; Z: MPC@4 of greater than 20 μg/mL)	Z (key: X: MPC@4 of less than 5 μg/mL; Y: MPC@4 of 5 μg/mL to 20 μg/mL; Z: MPC@4 of greater than 20 μg/mL)	Z (key: X: MPC@4 of less than 5 μg/mL; Y: MPC@4 of 5 μg/mL to 20 μg/mL; Z: MPC@4 of greater than 20 μg/mL)	Z (key: X: MPC@4 of less than 5 μg/mL; Y: MPC@4 of 5 μg/mL to 20 μg/mL; Z: MPC@4 of greater than 20 μg/mL)	Z (key: X: MPC@4 of less than 5 μg/mL; Y: MPC@4 of 5 μg/mL to 20 μg/mL; Z: MPC@4 of greater than 20 μg/mL)	Z (key: X: MPC@4 of less than 5 μg/mL; Y: MPC@4 of 5 μg/mL to 20 μg/mL; Z: MPC@4 of greater than 20 μg/mL)	Z (key: X: MPC@4 of less than 5 μg/mL; Y: MPC@4 of 5 μg/mL to 20 μg/mL; Z: MPC@4 of greater than 20 μg/mL)	Z (key: X: MPC@4 of less than 5 μg/mL; Y: MPC@4 of 5 μg/mL to 20 μg/mL; Z: MPC@4 of greater than 20 μg/mL)	Z (key: X: MPC@4 of less than 5 μg/mL; Y: MPC@4 of 5 μg/mL to 20 μg/mL; Z: MPC@4 of greater than 20 μg/mL)	Z (key: X: MPC@4 of less than 5 μg/mL; Y: MPC@4 of 5 μg/mL to 20 μg/mL; Z: MPC@4 of greater than 20 μg/mL)	Z (key: X: MPC@4 of less than 5 μg/mL; Y: MPC@4 of 5 μg/mL to 20 μg/mL; Z: MPC@4 of greater than 20 μg/mL)	Z (key: X: MPC@4 of less than 5 μg/mL; Y: MPC@4 of 5 μg/mL to 20 μg/mL; Z: MPC@4 of greater than 20 μg/mL)	Z (key: X: MPC@4 of less than 5 μg/mL; Y: MPC@4 of 5 μg/mL to 20 μg/mL; Z: MPC@4 of greater than 20 μg/mL)
